± gives the standard deviation of the averaged measurements. Values are relative to the signal before dosing, not to a vehicle control; the signal also falls without drug.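 Fibroblast labels name human fibroblasts: mostly primary ones from tissues such as uterus (C12385, HUF), lung (H6013), bone (Hs27A), adrenal (HADF) and skin (WS1), plus mammary HMF and breast cancer-associated Hs343T. The cancer cells are basal-like or mesenchymal-like triple-negative breast cancer lines. The paper calls a changed response a hit when it shifts by more than 3x the replicate standard deviation. The tissue of the other fibroblasts is not given here.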
Tested on: MDAMB468
Assay: relative JC-1 red fluorescence (viability) vs pre-drug, coculture with fibroblast (fraction); higher = more viable cancer cells
Settings: 0.1 µM
Description: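 JC-1 labelled TNBC cells cocultured 1:1 (1,500 cells each) with CellTrace Violet stained primary or stromal fibroblasts in 384-well plates in FluoroBrite medium, treated with one of 42 anticancer drugs at 0.1, 1, 10 or 100 uM. JC-1 red fluorescence (mitochondrial integrity in cancer cells only) was read by plate reader every 8 h for 72 h. Values are normalised to each well's pre-drug value. The stock of one drug was tenfold lower, so its dose labels may be too high.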

CS(=O)(=O)CCNCc1ccc(-c2ccc3ncnc(Nc4ccc(OCc5cccc(F)c5)c(Cl)c4)c3c2)o1 [Lapatinib]
relative JC-1 red fluorescence
Settings	8 h	16 h	24 h	32 h	40 h	48 h	56 h	64 h	72 h
coculture fibroblast: C12385	0.8919 ± 0.0087	0.848 ± 0.01	0.7953 ± 0.0047	0.716 ± 0.022	0.648 ± 0.0093	0.6237 ± 0.0026	0.585 ± 0.0071	0.547 ± 0.017	0.535 ± 0.025
coculture fibroblast: H6013	0.877 ± 0.019	0.823 ± 0.0092	0.7977 ± 0.0045	0.7901 ± 0.0018	0.749 ± 0.011	0.755 ± 0.0084	0.722 ± 0.009	0.7026 ± 0.0036	0.6628 ± 0.0017
coculture fibroblast: H6019	0.852 ± 0.011	0.8 ± 0.021	0.765 ± 0.019	0.697 ± 0.024	0.652 ± 0.02	0.626 ± 0.026	0.577 ± 0.03	0.54 ± 0.029	0.513 ± 0.022
coculture fibroblast: H6076	0.96 ± 0.023	0.841 ± 0.13	0.889 ± 0.0097	0.8834 ± 0.0081	0.824 ± 0.011	0.813 ± 0.021	0.773 ± 0.039	0.748 ± 0.03	0.797 ± 0.042
coculture fibroblast: H6231	0.83992 ± 0.00042	0.959 ± 0.045	0.875 ± 0.028	0.84 ± 0.032	0.797 ± 0.026	0.773 ± 0.039	0.722 ± 0.056	0.701 ± 0.066	0.681 ± 0.083
coculture fibroblast: HADF	0.8802 ± 0.0035	0.851 ± 0.019	0.765 ± 0.028	0.748 ± 0.045	0.696 ± 0.033	0.671 ± 0.038	0.638 ± 0.041	0.626 ± 0.033	0.593 ± 0.035
coculture fibroblast: HCFa	0.863 ± 0.013	0.789 ± 0.0092	0.738 ± 0.01	0.706 ± 0.029	0.631 ± 0.044	0.612 ± 0.046	0.562 ± 0.045	0.525 ± 0.039	0.482 ± 0.032
coculture fibroblast: HCPF	0.8774 ± 0.0074	0.909 ± 0.069	0.89 ± 0.011	0.8714 ± 0.0062	0.81 ± 0.02	0.78 ± 0.016	0.724 ± 0.024	0.705 ± 0.028	0.699 ± 0.036
coculture fibroblast: HHSteC	0.914 ± 0.017	0.868 ± 0.0098	0.8132 ± 0.005	0.794 ± 0.011	0.739 ± 0.0094	0.735 ± 0.015	0.672 ± 0.022	0.649 ± 0.027	0.596 ± 0.025
coculture fibroblast: HMF	0.854 ± 0.019	0.935 ± 0.032	0.855 ± 0.014	0.866 ± 0.051	0.8 ± 0.049	0.791 ± 0.037	0.747 ± 0.056	0.739 ± 0.056	0.737 ± 0.06
coculture fibroblast: HPFa	0.921 ± 0.02	0.909 ± 0.017	0.84 ± 0.014	0.787 ± 0.024	0.751 ± 0.023	0.746 ± 0.029	0.684 ± 0.038	0.656 ± 0.035	0.581 ± 0.047
coculture fibroblast: HUF	0.931 ± 0.013	0.8534 ± 0.0012	0.806 ± 0.026	0.752 ± 0.048	0.703 ± 0.057	0.682 ± 0.08	0.637 ± 0.083	0.615 ± 0.088	0.606 ± 0.096
coculture fibroblast: Hs5	0.839 ± 0.11	0.75 ± 0.037	0.957 ± 0.057	0.93 ± 0.068	0.86 ± 0.072	0.833 ± 0.08	0.787 ± 0.078	0.748 ± 0.08	0.78 ± 0.1
coculture fibroblast: Hs27A	0.8586 ± 0.0031	0.7769 ± 0.0065	0.7626 ± 0.0044	0.7706 ± 0.0064	0.711 ± 0.0074	0.7 ± 0.012	0.667 ± 0.015	0.6428 ± 0.0056	0.6015 ± 0.0031
coculture fibroblast: Hs343T	0.9 ± 0.034	0.84 ± 0.13	0.868 ± 0.026	0.83 ± 0.037	0.762 ± 0.023	0.737 ± 0.021	0.68 ± 0.022	0.669 ± 0.022	0.641 ± 0.027
coculture fibroblast: WS1	0.9022 ± 0.0063	0.814 ± 0.02	0.747 ± 0.047	0.69 ± 0.056	0.643 ± 0.071	0.607 ± 0.069	0.579 ± 0.074	0.554 ± 0.07	0.546 ± 0.077

From the supplement of paper PMC6078165
